PubChem BioAssay AID1259268 – Sanger Institute, 2017

Purpose: 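Kinase genes whose loss makes colon cancer cells more drug sensitive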 (follow-up of hits)
Cells: human SNUC1 colorectal cancer cells
Reagents: single siRNA against human genes
Conditions: anchor drugs added a day after transfection: BYL719 1 µM, cetuximab 5 µg/ml or trametinib 10 nM, versus DMSO vehicle
Measured: 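Replicate-averaged viability as a fraction of the non-targeting control, and a score of how far knock-down plus drug exceeds their separate effects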
Scale: synergy score with trametinib and synergy score with cetuximab and synergy score with BYL719: higher = stronger synergy of knock-down with drug
Call rule: 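Inactive when no drug gives a synergy score over 0.1, otherwise active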
Meaning of the calls: active = synergy with at least one drug; inactive = no synergy with any drug
Here is one part, drawn at random, of 160 deposited reagents. Of all reagents, 58 (36%) were called active. 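Trametinib by itself roughly halved viability, making its arm harsher than the cetuximab and BYL719 arms.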 Reagents against one gene are numbered here. Not all columns of the deposit are shown. Reagent sequences are not shown. The record does not give: the amount of reagent, the time to read-out.

Silencing of CSNK2A2 #1 came out at: synergy score with trametinib 0.0628; synergy score with cetuximab -0.0775; synergy score with BYL719 = -0.212; inactive.
For CSNK2A2 #2 the deposit lists synergy score with trametinib -0.06; synergy score with cetuximab -0.155; synergy score with BYL719 = -0.086; inactive.
CSNK2A2 #3 showed synergy score with trametinib -0.094; synergy score with cetuximab -0.00798; synergy score with BYL719 = -0.26; inactive.
With knock-down of CSNK2A2 #4, the record shows synergy score with trametinib 0.0247; synergy score with cetuximab -0.146; synergy score with BYL719 = -0.295; inactive.
PRAG1 #1 showed synergy score with trametinib 0.212; synergy score with cetuximab 0.271; synergy score with BYL719 = 0.0819; active.
Depletion of PRAG1 #2 gave: synergy score with trametinib 0.329; synergy score with cetuximab -0.0653; synergy score with BYL719 = 0.111; active.
After knock-down of PRAG1 #3, the screen gave synergy score with trametinib 0.0635; synergy score with cetuximab -0.0361; synergy score with BYL719 = -0.121; inactive.
Knock-down of PRAG1 #4 came out at: synergy score with trametinib 0.162; synergy score with cetuximab 0.0635; synergy score with BYL719 = 0.0299; active.

Targets listed so far whose gene name starts with P or p:
PRAG1 #1 → synergy score with trametinib = 0.212; synergy score with cetuximab = 0.271; synergy score with BYL719 = 0.0819; outcome = active
PRAG1 #2 → synergy score with trametinib = 0.329; synergy score with cetuximab = -0.0653; synergy score with BYL719 = 0.111; outcome = active
PRAG1 #3 → synergy score with trametinib = 0.0635; synergy score with cetuximab = -0.0361; synergy score with BYL719 = -0.121; outcome = inactive
PRAG1 #4 → synergy score with trametinib = 0.162; synergy score with cetuximab = 0.0635; synergy score with BYL719 = 0.0299; outcome = active

Next records follow.
After knock-down of PINK1 #1, the record shows synergy score with trametinib -0.0225; synergy score with cetuximab -0.226; synergy score with BYL719 = -0.362; inactive.
For PINK1 #2, the values are synergy score with trametinib 0.12; synergy score with cetuximab 0.017; synergy score with BYL719 = -0.12; active.
With knock-down of PINK1 #3, the screen gave synergy score with trametinib -0.0468; synergy score with cetuximab -0.222; synergy score with BYL719 = -0.235; inactive.
Against PINK1 #4, the entry reads synergy score with trametinib 0.142; synergy score with cetuximab -0.0983; synergy score with BYL719 = -0.188; active.
